This assay concerns the target T1, ME31B-GFP (Drosophila melanogaster) (UniProt P23128).
T1 sequence: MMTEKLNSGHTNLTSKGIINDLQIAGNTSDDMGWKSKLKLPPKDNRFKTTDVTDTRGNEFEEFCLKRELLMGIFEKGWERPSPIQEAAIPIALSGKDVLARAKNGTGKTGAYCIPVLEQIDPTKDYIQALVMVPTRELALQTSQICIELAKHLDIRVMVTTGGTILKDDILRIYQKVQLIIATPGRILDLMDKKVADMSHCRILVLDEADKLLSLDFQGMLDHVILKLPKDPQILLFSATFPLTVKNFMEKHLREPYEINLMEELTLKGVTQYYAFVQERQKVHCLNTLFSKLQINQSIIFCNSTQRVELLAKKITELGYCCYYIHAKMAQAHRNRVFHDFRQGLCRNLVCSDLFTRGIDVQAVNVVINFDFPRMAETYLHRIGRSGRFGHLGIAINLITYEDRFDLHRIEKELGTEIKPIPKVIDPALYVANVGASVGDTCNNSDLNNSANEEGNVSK
Kind of assay: co-IP.

These are yes or no findings as the source states them, for the method shown. In cells and extracts the contact can be indirect. Sequences can lack the tags named with a protein.

For RanBPM, short isoform, the binding entry was “no binding”.
